According to patent US20020055174A1, “Complex for transferring an anionic substance of interest into a cell” (priority 2000, published 2002):
Entries after “also recorded” stand apart in the source; their conditions may differ. Not every detail of the peptide structures is certain; ends, links or a residue may be inferred. Ends that are not written are not given here.

Columns and labels:
B6SJL mice = details: i.v., 50 or 60 μg pTG11236, day 1
Protocol: Indicated amounts of the luciferase expression plasmid pTG11236 were mixed with ppTG1 and /or pcTG90/DOPE. The resulting formulations were injected intramuscularly(30 μl), intravenously(250 μl) into mice or intratumorally (Renca tumors, 100 μgl). Muscles, tumors or organs were recovered at the indicated points of time, macerated and tested for luciferase activity with the luciferase assay kit from Promega.
60 μg or 30 μg of the plasmid pTG11236 were mixed with peptide ppTG1 and/or with a pcTG90/DOPE 1:2 mixture in 250 μl 5% glucose. After 20 min incubation at room temperature, the complexes were intravenously injected into B6SJL mice. Mice were sacrificed at day 1. The lungs were recovered, total protein was extracted and luciferase activity was analysed.
The potential of gene transfer with mono-component peptide vectors was investigated in vivo. Fifty or sixty μg of the luciferase expression plasmid pTG11236 were complexed with pcTG90/DOPE (1:2) [+/−] 10 in 250 μl 5% glucose (Meyer et al. 2000). The resulting lipoplex vector served as reference for gene transfer studies with pTG11236 complexed with ppTG1, ppTG20 and ppTG32 in 250 μl 5% glucose. Five mice per group were intravenously injected, the animals were sacrificed at day 1 after injection. Lungs were tested for luciferase activity.

[1] = Liposome leakage assay, POPC/cholesterol 3:2 liposomes; details: POPC/chol 3:2 liposomes, pH7
HeLa cells = experiment: Transfection in vitro, luciferase plasmid pTG11236; format: cell-based; details: 50 ng pTG11236, increasing charge ratios, day 1
Protocol: Cells were plated on 24 well plates at a density of 4×10^4 (293-EBNA ) or 7×10^4 (HeLa, Renca) cells/well in DMEM supplemented with 10% FCS. The next day, the medium was replaced by 200 μl serum-free DMEM and plasmid (pTG11056 or pTG11236)/peptide complexes or plasmid/peptide/lipid complexes were prepared in 30 μl 0.9% NaCl or 5% glucose. After 20 min at room temperature these complexes were added to the cells which were then incubated for 2-3 h at 37° C. and 5% CO2 before 1 ml serum-containing DMEM was added. Approximately 20-hours later, cells were lysed by addition of 100 μl 1× Promega lysis buffer, 20 μl of the lysates were analysed for luciferase activity. Proteins were quantified with the bicinchonic acid (BCA) colorimetric method (Smith, Anal. Biochem. 150 (1985), 76-85). […]
A comparison of ppTG1 and KALA was carried out in HeLa and CHO cells. […] Luciferase activity and total protein concentrations in 20 μl were determined.
HeLa cells were seeded at a density of 6×10^4 cells on 24 well plates. […] Plates were stored at −80° C. until luciferase activity was measured of 20 μl of the cell lysate. […]
The series of ppTG1 derivatives listed in Material and Methods were tested for their gene transfer efficiencies in Hela cells. […] Luciferase activity was analyzed day 1 after transfection. […]

For GLFRALLRLLRSLWRLLLRA [ppTG20], the “gene transfer efficiency in the lung, in words” value (B6SJL mice) was “even higher than with ppTG1; also recorded: at least comparable to gene transfer with the optimized lipoplexes; also recorded: general tendency to be more efficient; also recorded: higher gene expression; also recorded: more efficient gene transfer than ppTG1”, the “liposome leakage activity, in words” value [1] was “comparable to ppTG1” and the “transfection / gene transfer efficiency in vitro, in words” value (HeLa cells) was “comparable to that of ppTG1”.
